Experimental data from patent US20200121703A1, “CANCER TREATMENT” (The Cleveland Clinic Foundation, priority 2017, published 2020).
At least one compound was matched to its structure with a doubt left.

Key:
Type in all cases: cell-based
JNK1 = test: Immunoblots of SP600125-treated CSCs; settings: 5 and 10 uM SP600125, CSCs
[1] = system: CD55 overexpressing non-CSCs; test: Limiting dilution tumorsphere formation assay (ELDA); settings: SP600125 (5 μM) vs DMSO
cisplatin-naïve CSCs [2] = test: as above; settings: 500 nM and 1 uM saracatinib
cisplatin-naïve CSCs [3] = test: Cell survival assay with cisplatin (Trypan blue counting); settings: 1 uM saracatinib + cisplatin 0-50 uM vs cisplatin and DMSO
MLH1 and BRCA1 = test: Targeted gene expression profiling of 31 cisplatin resistance genes; settings: A2780 CSCs vs respective controls (DMSO, non-targeted)
[4] = system: CD55 overexpressing non-CSCs; test: Cisplatin resistance (caspase 3/7 activity, growth curves) with or without saracatinib; settings: co-treatment with cisplatin and 1 uM saracatinib
CP70 cells = test: Proliferation assay (CellTiter-Glo) with cisplatin after LCK inhibitor pretreatment; settings: 1 μM saracatinib pretreatment 4 days; vs cisplatin only or combination group

SMILES: Oc1c2ccccc2c2c3c(cccc13)N=N2 [SP600125]
- NANOG levels (JNK1): decrease
- activities of JNK1 and its downstream mediator c-Jun (JNK1): inhibited
- CD55-induced increase in self-renewal [1]: reversed

SMILES: CN1CCN(CCOc2cc(OC3CCOCC3)c3c(Nc4c(Cl)ccc5c4OCO5)ncnc3c2)CC1 [saracatinib]
- change in self-renewal and stem cell frequencies (cisplatin-naïve CSCs [2]): did not observe a significant change
- sensitivity to cisplatin (percent surviving cells) (cisplatin-naïve CSCs [3]): significantly higher sensitivity to cisplatin
- expression of DNA repair genes, including MLH1 and BRCA1 (MLH1 and BRCA1): modulated
- CD55-induced cisplatin resistance [4]: could overcome the resistance conferred by CD55
- cisplatin dose response (CP70 cells): shift in dose response
